Data reported in paper PMC7545097, “Mapping the native interaction surfaces of PREP1 with PBX1 by cross-linking mass-spectrometry and mutagenesis” (Scientific Reports, 2020).
These are yes or no findings as the source states them, for the method shown. In cells and extracts the contact can be indirect. Some binding calls cover weakened binding; strength is not graded here. Tags and fused reporters may be left off the sequences shown.

Target: T1, PBX1, endogenous in A549 cells (human (endogenous in A549)) (UniProt P40424)
T1 sequence: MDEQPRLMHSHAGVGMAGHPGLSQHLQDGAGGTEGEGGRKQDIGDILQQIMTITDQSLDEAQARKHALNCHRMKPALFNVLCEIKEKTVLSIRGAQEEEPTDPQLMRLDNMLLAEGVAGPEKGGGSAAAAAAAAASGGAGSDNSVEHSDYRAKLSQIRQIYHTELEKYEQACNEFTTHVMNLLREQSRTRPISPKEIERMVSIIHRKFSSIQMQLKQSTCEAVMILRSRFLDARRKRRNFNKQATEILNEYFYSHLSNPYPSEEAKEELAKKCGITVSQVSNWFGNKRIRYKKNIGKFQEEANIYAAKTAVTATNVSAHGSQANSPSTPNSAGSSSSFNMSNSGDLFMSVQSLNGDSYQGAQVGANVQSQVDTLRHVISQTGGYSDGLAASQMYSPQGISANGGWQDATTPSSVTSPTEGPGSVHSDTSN
Assay: proximity ligation; in situ PLA (Duolink) in fixed A549 cells expressing PREP1-GFP constructs; anti-PBX1 and anti-GFP antibodies; nuclear and cytoplasmic foci counted

B1: PREP1-GFP wild-type (protein, UniProt P55347 1-436)
chain: MMATQTLSIDSYQDGQQMQVVTELKTEQDPNCSEPDAEGVSPPPVESQTPMDVDKQAIYRHPLFPLLALLFEKCEQSTQGSEGTTSASFDVDIENFVRKQEKEGKPFFCEDPETDNLMVKAIQVLRIHLLELEKVNELCKDFCSRYIACLKTKMNSETLLSGEPGSPYSPVQSQQIQSAITGTISPQGIVVPASALQQGNVAMATVAGGTVYQPVTVVTPQGQVVTQTLSPGTIRIQNSQLQLQLNQDLSILHQDDGSSKNKRGVLPKHATNVMRSWLFQHIGHPYPTEDEKKQIAAQTNLTLLQVNNWFINARRRILQPMLDSSCSETPKTKKKTAQNRPVQRFWPDSIASGVAQPPPSELTMSEGAVVTITTPVNMNVDSLQSLSSDGATLAVQQVMMAGQSEDESVDSTEEDAGALAPAHISGLVLENSDSLQ
With B1 the binding was “binds”.
